Laboratory results taken from publication PMC11045787, “Disordered clock protein interactions and charge blocks turn an hourglass into a persistent circadian oscillator” (Nature Communications, 2024).

Columns and labels:
[1] = molecular target: T1, FRQ^VHF (wild-type FREQUENCY with V5-10-His-3-Flag tag) (N. crassa) (UniProt P19970); assay: co-IP; co-immunoprecipitation on VHF-tagged FRQ from lysates of N. crassa strains carrying short-ck1a^HA; overnight at 4 °C, 50 mM HEPES pH 7.4, 137 mM NaCl, 10% glycerol, 0.4% NP-40 alternative; blots with anti-FRH and anti-HA
T1 sequence: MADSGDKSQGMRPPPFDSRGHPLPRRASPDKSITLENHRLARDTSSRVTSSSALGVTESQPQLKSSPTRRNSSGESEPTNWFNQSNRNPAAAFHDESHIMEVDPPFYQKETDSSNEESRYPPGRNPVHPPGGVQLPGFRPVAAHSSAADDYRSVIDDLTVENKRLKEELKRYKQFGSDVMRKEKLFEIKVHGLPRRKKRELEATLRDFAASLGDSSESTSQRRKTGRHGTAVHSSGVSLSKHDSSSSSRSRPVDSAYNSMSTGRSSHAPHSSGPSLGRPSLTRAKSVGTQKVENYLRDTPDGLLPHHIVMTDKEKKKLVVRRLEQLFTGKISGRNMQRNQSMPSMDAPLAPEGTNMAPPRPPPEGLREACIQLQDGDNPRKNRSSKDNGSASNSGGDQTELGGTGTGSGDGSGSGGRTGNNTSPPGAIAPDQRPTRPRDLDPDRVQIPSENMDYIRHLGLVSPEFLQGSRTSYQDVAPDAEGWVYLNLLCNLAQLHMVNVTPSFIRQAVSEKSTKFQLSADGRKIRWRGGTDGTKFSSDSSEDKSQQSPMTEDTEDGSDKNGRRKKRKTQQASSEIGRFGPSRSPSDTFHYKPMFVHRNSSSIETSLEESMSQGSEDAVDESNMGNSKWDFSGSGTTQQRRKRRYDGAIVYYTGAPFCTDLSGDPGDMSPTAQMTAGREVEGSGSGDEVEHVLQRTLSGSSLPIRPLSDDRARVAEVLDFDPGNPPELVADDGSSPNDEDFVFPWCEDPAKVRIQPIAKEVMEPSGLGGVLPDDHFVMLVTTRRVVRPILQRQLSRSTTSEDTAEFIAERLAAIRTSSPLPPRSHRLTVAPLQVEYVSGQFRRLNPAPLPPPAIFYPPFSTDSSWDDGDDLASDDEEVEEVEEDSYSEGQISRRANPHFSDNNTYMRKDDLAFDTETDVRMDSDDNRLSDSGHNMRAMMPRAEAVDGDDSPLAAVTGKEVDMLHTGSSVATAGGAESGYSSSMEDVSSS

[2] = molecular target: T2, FRQ^KKK/AAA (KKK315AAA, VHF-tagged) (N. crassa) (UniProt P19970); assay: as above
T2 sequence: T1 sequence with K315A, K316A, K317A

Substance: CASEIN KINASE 1a fused to an HA epitope tag (short-ck1a^HA) (N. crassa) (enzyme)
- binding [1]: binds
- binding [2]: binds

Substitutions are numbered along the chain they refer to. These are yes or no findings as the source states them, for the method shown. In cells and extracts the contact can be indirect. Binding calls can cover weak binding; strength is not graded here. Sequences can lack the tags named with a protein.
